Experimental data taken from publication doi:10.1101/2022.02.08.479616.
These are yes or no findings as the source states them, for the method shown. Tags and fused reporters may be left off the sequences shown.

Amino acid sequences for entries named in this document (tags omitted). A change or cut given only in a name is not applied to a line headed by its entry. Residues count along the entry.
UniProt Q9SJE1, residues 50-760: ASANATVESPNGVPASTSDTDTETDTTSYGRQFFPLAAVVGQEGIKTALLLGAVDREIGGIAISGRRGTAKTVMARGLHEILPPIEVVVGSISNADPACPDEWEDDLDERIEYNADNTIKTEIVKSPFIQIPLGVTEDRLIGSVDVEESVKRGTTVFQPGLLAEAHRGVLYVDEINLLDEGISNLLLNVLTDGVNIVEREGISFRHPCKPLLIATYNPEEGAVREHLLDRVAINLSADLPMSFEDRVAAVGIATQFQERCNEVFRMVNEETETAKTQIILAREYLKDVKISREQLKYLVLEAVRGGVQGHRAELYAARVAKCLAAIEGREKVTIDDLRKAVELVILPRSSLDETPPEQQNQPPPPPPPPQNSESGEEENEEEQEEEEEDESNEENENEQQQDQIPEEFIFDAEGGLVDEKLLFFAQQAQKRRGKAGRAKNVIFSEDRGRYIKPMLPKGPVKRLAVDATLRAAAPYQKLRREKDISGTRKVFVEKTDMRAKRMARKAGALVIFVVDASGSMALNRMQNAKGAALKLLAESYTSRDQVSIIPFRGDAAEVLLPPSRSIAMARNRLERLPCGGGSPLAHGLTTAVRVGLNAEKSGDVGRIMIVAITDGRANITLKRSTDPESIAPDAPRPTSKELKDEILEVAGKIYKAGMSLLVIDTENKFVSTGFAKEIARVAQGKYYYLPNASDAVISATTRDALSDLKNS

T1: ORANGE (OR), Cub fusion for split-ubiquitin Y2H (Arabidopsis thaliana) (UniProt Q9FKF4)
T1 sequence: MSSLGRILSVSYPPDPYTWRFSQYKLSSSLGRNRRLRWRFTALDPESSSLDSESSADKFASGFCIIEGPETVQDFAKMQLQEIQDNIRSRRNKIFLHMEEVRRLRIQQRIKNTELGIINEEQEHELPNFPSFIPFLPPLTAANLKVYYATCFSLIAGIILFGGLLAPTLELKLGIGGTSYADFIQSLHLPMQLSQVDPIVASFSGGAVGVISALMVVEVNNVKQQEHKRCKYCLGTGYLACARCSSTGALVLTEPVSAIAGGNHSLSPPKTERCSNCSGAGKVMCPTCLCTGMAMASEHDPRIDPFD

T2: OR-Like (ORL), Cub fusion for split-ubiquitin Y2H (Arabidopsis thaliana) (UniProt Q8VYD8)
T2 sequence: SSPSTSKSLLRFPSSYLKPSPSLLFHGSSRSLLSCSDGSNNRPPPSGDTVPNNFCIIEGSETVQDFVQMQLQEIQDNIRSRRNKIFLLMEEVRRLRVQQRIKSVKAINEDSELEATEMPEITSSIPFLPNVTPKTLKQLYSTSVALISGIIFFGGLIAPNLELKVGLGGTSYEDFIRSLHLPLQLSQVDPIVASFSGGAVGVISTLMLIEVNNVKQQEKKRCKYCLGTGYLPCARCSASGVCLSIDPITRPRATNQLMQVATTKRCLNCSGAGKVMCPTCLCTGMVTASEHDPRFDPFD


How the values were obtained:
[1] = molecular target: T1, ORANGE (OR), Cub fusion for split-ubiquitin Y2H (Arabidopsis thaliana); assay: two-hybrid
[2] = molecular target: T2, OR-Like (ORL), Cub fusion for split-ubiquitin Y2H (Arabidopsis thaliana); assay: two-hybrid

Molecule | binding [1] | binding [2]
Mg-chelatase subunit CHLD, Nub fusion for split-ubiquitin Y2H (from UniProt Q9SJE1 50-760) | no binding | no binding
MgPMME cyclase 1 (CRD1), Nub fusion for split-ubiquitin Y2H (protein, UniProt Q9M591 37-409) MSASSSPPPPTTATSKSKKGTKKEIQESLLTPRFYTTDFEEMEQLFNTEINKNLNEAEFEALLQEFKTDYNQTHFVRNKEFKEAADKLQGPLRQIFVEFLERSCTAEFSGFLLYKELGRRLKKTNPVVAEIFSLMSRDEARHAGFLNKGLSDFNLALDLGFLTKARKYTFFKPKFIFYATYLSEKIGYWRYITIYRHLKENPEFQCYPIFKYFENWCQDENRHGDFFSALMKAQPQFLNDWQAKLWSRFFCLSVYVTMYLNDCQRTNFYEGIGLNTKEFDMHVIIETNRTTARIFPAVLDVENPEFKRKLDRMVVSYEKLLAIGETDDASFIKTLKRIPLVTSLASEILAAYLMPPVESGSVDFAEFEPNLVY | no binding | no binding

The remaining lines, values ahead:

binding [1] | binding [2] | Molecule
no binding | no binding | MgProtoIX methyltransferase (CHLM), Nub fusion for split-ubiquitin Y2H (protein, UniProt Q9SW18 40-312) AASVTDLAGVDSTTIAVLGGGSVAALAAMVSLTDPERRRKLQAEEVGGGDKEVVREYFNSTGFERWRKIYGETDEVNRVQKDIRLGHAKTVENTMLMLTEDRSLAGVTVCDAGCGTGLLSIPLAKEGAIVSASDISAAMVAEAEMKAKAQLPSENLPKFEVNDLESLTGKYDTVVCLDVLIHYPQNKADGMIAHLASLAEKRVILSFAPKTFYYDILKRIGELFPGPSKATRAYLHSEADVERALGKVGWKISKRGLTTTQFYFSRLIEAVPM
no binding | no binding | Pchlide oxidoreductase B (PORB), Nub fusion for split-ubiquitin Y2H (protein, UniProt P21218 67-401) QTAATSSPTVTKSVDGKKTLRKGNVVVTGASSGLGLATAKALAETGKWNVIMACRDFLKAERAAKSVGMPKDSYTVMHLDLASLDSVRQFVDNFRRTETPLDVLVCNAAVYFPTAKEPTYSAEGFELSVATNHLGHFLLARLLLDDLKKSDYPSKRLIIVGSITGNTNTLAGNVPPKANLGDLRGLAGGLNGLNSSAMIDGGDFDGAKAYKDSKVCNMLTMQEFHRRFHEETGVTFASLYPGCIASTGLFREHIPLFRALFPPFQKYITKGYVSETESGKRLAQVVSDPSLTKSGVYWSWNNASASFENQLSEEASDVEKARKVWEISEKLVGLA
